From the supplement of paper PMC4604168 (melanoma cell lines)
Some of the results follow. Single values are uncertain, as repeats are few or missing.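 Cells were imaged in 1,536-well plates, and nuclei stained with an antibody against cleaved PARP were counted against all DNA-stained nuclei to give the apoptosis fraction. Screening doses were chosen to leave most cells alive, and resting and induced cleaved-PARP levels differ strongly between cell lines.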

Each compound was assayed on A375 (assay: cleaved PARP positive nuclei fraction relative to DMSO control; melanoma cells; higher = more apoptosis). Settings: library dose: low library concentration; 72 h.

| SMILES | cleaved PARP positive nuclei fraction |
| --- | --- |
| Nc1ncn([C@H]2C[C@H](O)[C@@H](CO)O2)c(=O)n1 [decitabine] + Cc1cc(N2CCOCC2)cc2[nH]c(-c3c(NC[C@@H](O)c4cccc(Cl)c4)cc[nH]c3=O)nc12 [BMS536924] (first compound 0.1 µM, partner dose 0.2 µM) | 78.8% |
| Cn1c(=O)n(-c2ccc(C(C)(C)C#N)cc2)c2c3cc(-c4cnc5ccccc5c4)ccc3ncc21 + NCC(=O)Nc1ccc(-n2nc(C(F)(F)F)cc2-c2ccc3c(ccc4ccccc43)c2)cc1 [OSU03012] (first compound 0.004 µM, partner dose 1 µM) | 1580% |
| CS(=O)(=O)CCNCc1ccc(-c2ccc3ncnc(Nc4ccc(OCc5cccc(F)c5)c(Cl)c4)c3c2)o1 [lapatinib] + O=C(Nc1cccc(Cl)c1)Nc1ncc(CCNc2ncnc3ccsc23)s1 [SNS314] (first compound 0.8 µM, partner dose 0.0008 µM) | 118% |
| CN1CCN(c2ccc3nc(-c4c(N)c5c(F)cccc5[nH]c4=O)[nH]c3c2)CC1 [Dovitinib] + CN(C)S(=O)(=O)c1ccc2c(c1)/C(=C/c1cc3c([nH]1)CCCC3)C(=O)N2 [SU6656] (first compound 0.1 µM, partner dose 0.4 µM) | 164% |
| C[C@@H](Oc1cc(-c2cnn(C3CCNCC3)c2)cnc1N)c1c(Cl)ccc(F)c1Cl [Crizotinib] + Cn1cncc1[C@@](N)(c1ccc(Cl)cc1)c1ccc2c(c1)c(-c1cccc(Cl)c1)cc(=O)n2C [tipifarnib] (first compound 0.2 µM, partner dose 0.01 µM) | 55.8% |
